Patent publication US20260224620A1
Results are given in words; binding and its absence hold for the method and conditions named. Some binding calls cover weakened binding; strength is not graded here.

Chains of the proteins cited; added tags and fusions are not shown. Lines headed by an entry give the natural chain unless they say otherwise; changes in a name come on top.
UniProt Q08722: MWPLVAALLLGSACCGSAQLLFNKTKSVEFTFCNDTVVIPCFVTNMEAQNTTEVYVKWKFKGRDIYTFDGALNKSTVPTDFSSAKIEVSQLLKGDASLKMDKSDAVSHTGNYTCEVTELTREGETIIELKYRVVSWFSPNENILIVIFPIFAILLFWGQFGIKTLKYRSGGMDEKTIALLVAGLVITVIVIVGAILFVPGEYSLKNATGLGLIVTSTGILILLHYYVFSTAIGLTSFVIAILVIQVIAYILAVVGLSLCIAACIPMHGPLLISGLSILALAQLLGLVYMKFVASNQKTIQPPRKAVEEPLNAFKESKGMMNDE

How the values were obtained:
[1] = target: Human CD47 (A30P), full-length, expressed on cells (human) (UniProt Q08722); assay: flow cytometry on primary human T cells, 50 nM mSIRPα
[2] = target: Human CD47 (Q31P), full-length, expressed on cells (human) (UniProt Q08722); assay: as above
[3] = target: Yeast displayed CD47 Ig-like domain A30P in pFNT (human) (UniProt Q08722); assay: flow cytometry on yeast display with free CD47 N-terminus (pFNT)
[4] = target: Yeast displayed CD47 Ig-like domain Q31P in pFNT (human) (UniProt Q08722); assay: as above
[5] = target: Human CD47 (A30P), full-length, expressed on cells (human) (UniProt Q08722); assay: flow cytometry on Jurkat cells with endogenous 47KO, 100 nM mSIRPα
[6] = target: Human CD47 (Q31P), full-length, expressed on cells (human) (UniProt Q08722); assay: as above
[7] = target: Human CD47 (A30P), full-length, expressed on cells (human) (UniProt Q08722); assay: flow cytometry on primary human T cells over-expressing full-length CD47 variants
[8] = target: Human CD47 (A30P-Q31A), full-length, expressed on cells (human) (UniProt Q08722); assay: as above
[9] = target: Human CD47 (Q31P), full-length, expressed on cells (human) (UniProt Q08722); assay: as above

Measured: binding

B1: Mouse SIRPα-hFc (Fc fusion, UniProt P97797 32-373, looked up, not shown: a dimerising Fc or GST)
chain: KELKVTQPEKSVSVAAGDSTVLNCTLTSLLPVGPIRWYRGVGPSRLLIYSFAGEYVPRIRNVSDTTKRNNMDFSIRISNVTPADAGIYYCVKFQKGSSEPDTEIQSGGGTEVYVLAKPSPPEVSGPADRGIPDQKVNFTCKSHGFSPRNITLKWFKDGQELHPLETTVNPSGKNVSYNISSTVRVVLNSMDVNSKVICEVAHITLDRSPLRGIANLSNFIRVSPTVKVTQQSPTSMNQVNLTCRAERFYPEDLQLIWLENGNVSRNDTPKNLTKNTDGTYNYTSLFLVNSSAHREDVVFTCQVKHDQQPAITRNHTVLGFAHSSDQGSMQTFPDNNATHNWN
binds: all assays above
